Data as given in patent publication US20140350088.

By UniProt entry, the sequences of proteins in these tests, tags left out. Residues count along the entry.
UniProt P01275, 53-81: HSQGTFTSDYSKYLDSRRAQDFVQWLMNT

Assays:
[1] = target: biotinylated human glucagon (Homo sapiens) (UniProt P01275); test: competition with a labelled probe; settings: L-DNA, synthetic protein, mirror-image nucleic acid
[2] = target: T1, human C5a (Homo sapiens) (UniProt P01031); test: SPR; settings: L-RNA, purified recombinant protein, protein details: Sigma Aldrich
T1 sequence: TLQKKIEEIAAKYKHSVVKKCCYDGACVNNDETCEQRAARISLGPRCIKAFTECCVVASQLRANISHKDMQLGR

GCAGTGGGGAAATGGGAGGGCTAGGTGGAAGGAATCTGAGCTACTGC [257-E1-R21-001]
binding result ([1]; ribo at 21, reduced or lost vs parent, 37 C, synthetic backbone): binds more weakly

GCAGTGGGGAAATGGGAGGGCTAGGTGGAAGGAATCTGAGCTACTGC [257-E1-R4-001]
binding result ([1]; ribo at 4, printed as 257-E4-R1-001 (position 4), reduced or lost, 37 C, 1 mM Mg, 1 mM Ca, synthetic backbone): binds more weakly

GCAGTGGGGAAATGGGAGGGCTAGGTGGAAGGAATCTGAGCTACTGC [257-E1-R29-001]
binding result ([1]; rA at 29, improved vs parent, among best, competitive pull-down, variant of 257-E1-001): binds

GCAGTGGGGAAATGGGAGGGCTAGGTGGAAGGAATCTGAGCTACUGC [257-E1-R45-001]
binding result ([1]; rU at 45, reduced or lost vs parent, 37 C, synthetic backbone): binds more weakly

GCAGTGGGGAAATGGGAGGGCTAGGTGGAAGGAATCTGAGCTACTGC [257-E1-6xR-001]
binding result ([1]; rG at 9, 15, 18, 19, rA at 29, 30, better than R15/29 and R15/18/29/30, variant of 257-E1-001): binds

GCAGTGGGGAAATGGGAGGGCTAGGTGGAAGGAATCTGAGCTACTGC [257-E1-R15/29-001]
binding result ([1]; rG at 15, rA at 29, better than single substitutions, variant of 257-E1-001): binds

GCAGTGGGGAAATGGGAGGGCTAGGTGGAAGGAATCTGAGCTACTGC [257-E1-R43-001]
binding result ([1]; ribo at 43, reduced or lost vs parent, 37 C, synthetic backbone): binds more weakly

GCGCGGGGAAATGGGAGGGCTAGGTGGAAGGAATCTGAGCCGCGC [257-E1-7xR-023]
binding signal ([1]; rG at 8, 14, 17, 18, rT (5-methyl-uridine) at 25, rA at 28, 29 (own numbering), affinity improved vs 257-E1-001, competitive pull-down 37 C, variant of 257-E1-001): 43 fold

GCAGTGGGGAAATGGGAGGGCTAGGTGGAAGGAATCTGAGCTACTGC [257-E1-R17-001]
binding result ([1]; ribo at 17, reduced or lost vs parent, 37 C, synthetic backbone): binds more weakly

GCAGTGGGGAAATGGGAGGGCTAGGTGGAAGGAATCTGAGCTACTGC [257-E1-R33-001]
binding result ([1]; ribo at 33, reduced or lost vs parent, 37 C, synthetic backbone): binds more weakly

GCAGTGGGGAAATGGGAGGGCTAGGTGGAAGGAATCTGAGCTACTGC [257-E1-R7-001]
binding result ([1]; rG at 7, reduced or lost binding vs parent, variant of 257-E1-001): binds more weakly

GCAGTGGGGAAATGGGAGGGCTAGGTGGAAGGAATCTGAGCTACTGC [257-E1-R40-001]
binding result ([1]; ribo at 40, reduced or lost vs parent, 37 C, synthetic backbone): binds more weakly

GCAGTGGGGAAATGGGAGGGCTAGGTGGAAGGAATCTGAGCTACTGC [257-E1-R3-001]
binding result ([1]; rA at 3, reduced or lost binding vs parent, variant of 257-E1-001): binds more weakly

GCAGTGGGGAAATGGGAGGGCTAGGTGGAAGGAATCTGAGCTACTGC [257-E1-R24-001]
binding result ([1]; ribo at 24, reduced or lost vs parent, 37 C, synthetic backbone): binds more weakly

GCAGTGGGGAAATGGGAGGGCUAGGTGGAAGGAATCTGAGCTACTGC [257-E1-R22-001]
binding result ([1]; rU at 22, reduced or lost vs parent, 37 C, synthetic backbone): binds more weakly

GCAGTGGGGAAATGGGAGGGCTAGGTGGAAGGAATCTGAGCTACTGC [257-E1-R14-001]
binding result ([1]; ribo at 14, reduced or lost vs parent, 37 C, synthetic backbone): binds more weakly

GCAGTGGGGAAATGGGAGGGCTAGGTGGAAGGAATCTGAGCTACTGC [257-E1-R30-001]
binding result ([1]; rA at 30, improved vs parent, among best, competitive pull-down, variant of 257-E1-001): binds

GCCUGAUGUGGUGGUGAAGGGUUGUUGGGUGUCGACGCACAGGC [NOX-D19001-D21]
binding result ([2]; 2'-deoxy at 21, reduced or lost vs parent, 37 C, amine coupled to CM5 chip, synthetic backbone, mirror-image nucleic acid): binds more weakly

GCCUGAUGUGGUGGUGAAGGGUUGUUGGGUGUCGACGCACAGGC [NOX-D19001-D35]
binding result ([2]; 2'-deoxy at 35, listed as unchanged, also stated as improved, 37 C, amine coupled to CM5 chip, synthetic backbone, mirror-image nucleic acid): binds

GCCUGAUGUGGUGGUGAAGGGUUGUUGGGUGUCGACGCACAGGC [NOX-D19001-D44]
binding result ([2]; 2'-deoxy at 44, listed as unchanged, also stated as improved, 37 C, amine coupled to CM5 chip, synthetic backbone, mirror-image nucleic acid): binds

GCCUGAUGUGGUGGUGAAGGGUUGUUGGGUGUCGACGCACAGGC [NOX-D19001-D17]
binding result ([2]; dA at 17, improved vs parent, amine-coupled for SPR, mirror-image nucleic acid, variant of NOX-D19001): binds

GCCUGAUGUGGUGGUGAAGGGUUGUUGGGUGUCGACGCACAGGC [NOX-D19001-D13]
binding result ([2]; 2'-deoxy at 13, reduced or lost vs parent, 37 C, amine coupled to CM5 chip, synthetic backbone, mirror-image nucleic acid): binds more weakly

GCCUGAUGUGGUGGUGAAGGGUUGUUGGGUGUCGACGCACAGGC [NOX-D19001-D11]
binding result ([2]; 2'-deoxy at 11, reduced or lost vs parent, 37 C, amine coupled to CM5 chip, synthetic backbone, mirror-image nucleic acid): binds more weakly

GCCUGAUGUGGUGGUGAAGGGUUGUUGGGUGUCGACGCACAGGC [NOX-D19001-D30]
binding result ([2]; dU at 30, improved vs parent, amine-coupled for SPR, mirror-image nucleic acid, variant of NOX-D19001): binds

GCCUGAUGUGGUGGUGAAGGGUUGUUGGGUGUCGACGCACAGGC [NOX-D19001-D19]
binding result ([2]; 2'-deoxy at 19, reduced or lost vs parent, 37 C, amine coupled to CM5 chip, synthetic backbone, mirror-image nucleic acid): binds more weakly

GCCUGAUGUGGUGGUGAAGGGUUGUUGGGUGUCGACGCACAGGC [NOX-D19001-D34]
binding result ([2]; 2'-deoxy at 34, reduced or lost vs parent, 37 C, amine coupled to CM5 chip, synthetic backbone, mirror-image nucleic acid): binds more weakly

GCCUGAUGUGGUGGUGAAGGGUUGUUGGGUGUCGACGCACAGGC [NOX-D19001-D23]
binding result ([2]; dU at 23, unchanged vs parent, 37 C, amine coupled to CM5 chip, synthetic backbone, mirror-image nucleic acid): binds

GCCUGAUGUGGUGGUGAAGGGUUGUUGGGUGUCGACGCACAGGC [NOX-D19001-D24]
binding result ([2]; 2'-deoxy at 24, reduced or lost vs parent, 37 C, amine coupled to CM5 chip, synthetic backbone, mirror-image nucleic acid): binds more weakly

GCCUGAUGUGGUGGUGAAGGGUUGUUGGGUGUCGACGCACAGGC [NOX-D19001-D43]
binding result ([2]; 2'-deoxy at 43, improved vs parent, 37 C, amine coupled to CM5 chip, synthetic backbone, mirror-image nucleic …): binds

GCCUGAUGUGGUGGUGAAGGGUUGUUGGGUGUCGACGCACAGGC [NOX-D19001-D38]
binding result ([2]; 2'-deoxy at 38, unchanged vs parent, also listed as reduced in p388, 37 C, amine coupled to CM5 chip, synthetic backbone, mirror-image nucleic acid): binds

GCCUGAUGUGGUGGUGAAGGGUUGUUGGGUGUCGACGCACAGGC [NOX-D19001-D33]
binding result ([2]; 2'-deoxy at 33, reduced or lost vs parent, 37 C, amine coupled to CM5 chip, synthetic backbone, mirror-image nucleic acid): binds more weakly

GCCUGAUGUGGUGGUGAAGGGUUGUUGGGUGUCGACGCACAGGC [NOX-D19001-D26]
binding result ([2]; dU at 26, unchanged vs parent, 37 C, amine coupled to CM5 chip, synthetic backbone, mirror-image nucleic acid): binds

GCCUGAUGUGGUGGUGAAGGGUUGUUGGGUGUCGACGCACAGGC [NOX-D19001-D09-30-40]
binding result ([2]; dU at 9, 30, dC at 40, better than double substitutions, amine-coupled for SPR, mirror-image nucleic acid, variant of NOX-D19001): binds

GCCUGAUGUGGUGGUGAAGGGUUGUUGGGUGUCGACGCACAGGC [NOX-D19001-D09-40]
binding result ([2]; dU at 9, dC at 40, better than single substitutions, amine-coupled for SPR, mirror-image nucleic acid, variant of NOX-D19001): binds

GCCUGAUGUGGUGGUGAAGGGUUGUUGGGUGUCGACGCACAGGC [NOX-D19001-D30-32]
binding result ([2]; dU at 30, 32, better than single substitutions, amine-coupled for SPR, mirror-image nucleic acid, variant of NOX-D19001): binds

GCCUGAUGUGGUGGUGAAGGGUUGUUGGGUGUCGACGCACAGGC [NOX-D19001-D09-30-32-40]
binding result ([2]; dU at 9, 30, 32, dC at 40, better than triple substitutions, amine-coupled for SPR, mirror-image nucleic acid, variant of NOX-D19001): binds

GCCUGAUGUGGUGGUGAAGGGUUGUUGGGUGUCGACGCACAGGC [NOX-D19001-6xDNA (D09-16-17-30-32-40)]
binding signal ([2]; dU at 9, 30, 32, dG at 16, dA at 17, dC at 40, affinity improved vs NOX-D19001, amine-coupled for SPR, mirror-image nucleic acid, variant of NOX-D19001): 4.2 fold

GCCUGAUGUGGUGGUGAAGGGUUGUUGGGUGUCGACGCACAGGC [NOX-D19001-D07]
binding result ([2]; dU at 7, reduced or lost binding vs parent, amine-coupled for SPR, mirror-image nucleic acid, variant of NOX-D19001): binds more weakly

GCCUGAUGUGGUGGUGAAGGGUUGUUGGGUGUCGACGCACAGGC [NOX-D19001-D32-40]
binding result ([2]; dU at 32, dC at 40, better than single substitutions, amine-coupled for SPR, mirror-image nucleic acid, variant of NOX-D19001): binds

GCCUGAUGUGGUGGUGAAGGGUUGUUGGGUGUCGACGCACAGGC [NOX-D19001-D09-17-30-32-40]
binding result ([2]; dU at 9, 30, 32, dA at 17, dC at 40, better than D09-30-32-40, amine-coupled for SPR, mirror-image nucleic acid, variant of NOX-D19001): binds

For at least one entry, the source does not settle the construct or the ends of the probe. A weaker result is weaker than the reference pair of the same experiment. For some of these results: Protein sequences can lack the tags named with them. The direction of at least one scale is not stated here.
